Results as given in PMC8734417.
Results are given in words; binding and its absence hold for the method and conditions named. In cells and extracts the contact can be indirect. Binding calls can cover weak binding; strength is not graded here.

Target: T1, human epididymis protein 4 (human (endogenous in OVCAR3 and ES-2)) (UniProt Q14508)
T1 sequence: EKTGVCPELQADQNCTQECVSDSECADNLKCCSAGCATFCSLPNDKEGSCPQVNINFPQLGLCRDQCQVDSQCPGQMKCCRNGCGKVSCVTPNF
Test: co-IP; endogenous proteins in RIPA lysates of OVCAR3 and ES-2 cells; immunoprecipitation with anti-HE4 and blot for CD147, and immunoprecipitation with anti-CD147 and blot for HE4; overnight at 4 °C, protein A/G-agarose beads; mouse or rabbit IgG as negative control

binding: binds
Substance: CD147 (extracellular matrix metalloproteinase inducer) (human (endogenous in OVCAR3 and ES-2))
